Test results as given in paper PMC13196873.
No constants are given. Whether binding was seen depends on the method and setting. Binding seen in cells or lysates may run through a third protein. Binding can be weak; no strength is given. Sequences can lack the tags named with a protein.

Target: KVβ1.2 subunit
Assay: co-IP; HEK293 cells cotransfected with or without KV1.5, KVβ1.2, Lgi3 and Lgi4; total lysates immunoprecipitated against KVβ1.2, immunoblotted for KV1.5, FLAG (Lgi3-4) and KVβ1.2

Binder | binding
Lgi4 (FLAG-tagged) (protein, UniProt Q8N135-1 20-537) WRPPKGKCPLRCSCSKDSALCEGSPDLPVSFSPTLLSLSLVRTGVTQLKAGSFLRIPSLHLLLFTSNSFSVIEDDAFAGLSHLQYLFIEDNEIGSISKNALRGLRSLTHLSLANNHLETLPRFLFRGLDTLTHVDLRGNPFQCDCRVLWLLQWMPTVNASVGTGACAGPASLSHMQLHHLDPKTFKCRAIELSWFQTVGESALSVEPFSYQGEPHIVLAQPFAGRCLILSWDYSLQRFRPEEELPAASVVSCKPLVLGPSLFVLAARLWGGSQLWARPSPGLRLAPTQTLAPRRLLRPNDAELLWLEGQPCFVVADASKAGSTTLLCRDGPGFYPHQSLHAWHRDTDAEALELDGRPHLLLASASQRPVLFHWTGGRFERRTDIPEAEDVYATRHFQAGGDVFLCLTRYIGDSMVMRWDGSMFRLLQQLPSRGAHVFQPLLIARDQLAILGSDFAFSQVLRLEPDKGLLEPLQELGPPALVAPRAFAHITMAGRRFLFAACFKGPTQIYQHHEIDLSA | binds
Lgi3 (FLAG-tagged) (protein, UniProt Q8N145 31-548) KRPPKTPPCPPSCSCTRDTAFCVDSKAVPRNLPSEVISLTLVNAAFSEIQDGAFSHLPLLQFLLLNSNKFTLIGDNAFTGLSHLQYLFIENNDIWALSKFTFRGLKSLTHLSLANNNLQTLPRDIFRPLDILNDLDLRGNSLNCDCKVKWLVEWLAHTNTTVAPIYCASPPRFQEHKVQDLPLREFDCITTDFVLYQTLAFPAVSAEPFLYSSDLYLALAQPGVSACTILKWDYVERQLRDYDRIPAPSAVHCKPMVVDSQLYVVVAQLFGGSYIYHWDPNTTRFTRLQDIDPQRVRKPNDLEAFRIDGDWYFAVADSSKAGATSLYRWHQNGFYSHQALHPWHRDTDLEFVDGEGKPRLIVSSSSQAPVIYQWSRTQKQFVAQGEVTQVPDAQAVKHFRAGRDSYLCLSRYIGDSKILRWEGTRFSEVQALPSRGSLALQPFLVGGRRYLALGSDFSFTQIYQWDEGRQKFVRFQELAVQAPRAFCYMPAGDAQLLLAPSFKGQTLVYRHIVVDLSA | binds
